## Screening data, single-dose tests

Amino acid sequences for entries named in this document (tags omitted).
UniProt I6X8D2, whole entry: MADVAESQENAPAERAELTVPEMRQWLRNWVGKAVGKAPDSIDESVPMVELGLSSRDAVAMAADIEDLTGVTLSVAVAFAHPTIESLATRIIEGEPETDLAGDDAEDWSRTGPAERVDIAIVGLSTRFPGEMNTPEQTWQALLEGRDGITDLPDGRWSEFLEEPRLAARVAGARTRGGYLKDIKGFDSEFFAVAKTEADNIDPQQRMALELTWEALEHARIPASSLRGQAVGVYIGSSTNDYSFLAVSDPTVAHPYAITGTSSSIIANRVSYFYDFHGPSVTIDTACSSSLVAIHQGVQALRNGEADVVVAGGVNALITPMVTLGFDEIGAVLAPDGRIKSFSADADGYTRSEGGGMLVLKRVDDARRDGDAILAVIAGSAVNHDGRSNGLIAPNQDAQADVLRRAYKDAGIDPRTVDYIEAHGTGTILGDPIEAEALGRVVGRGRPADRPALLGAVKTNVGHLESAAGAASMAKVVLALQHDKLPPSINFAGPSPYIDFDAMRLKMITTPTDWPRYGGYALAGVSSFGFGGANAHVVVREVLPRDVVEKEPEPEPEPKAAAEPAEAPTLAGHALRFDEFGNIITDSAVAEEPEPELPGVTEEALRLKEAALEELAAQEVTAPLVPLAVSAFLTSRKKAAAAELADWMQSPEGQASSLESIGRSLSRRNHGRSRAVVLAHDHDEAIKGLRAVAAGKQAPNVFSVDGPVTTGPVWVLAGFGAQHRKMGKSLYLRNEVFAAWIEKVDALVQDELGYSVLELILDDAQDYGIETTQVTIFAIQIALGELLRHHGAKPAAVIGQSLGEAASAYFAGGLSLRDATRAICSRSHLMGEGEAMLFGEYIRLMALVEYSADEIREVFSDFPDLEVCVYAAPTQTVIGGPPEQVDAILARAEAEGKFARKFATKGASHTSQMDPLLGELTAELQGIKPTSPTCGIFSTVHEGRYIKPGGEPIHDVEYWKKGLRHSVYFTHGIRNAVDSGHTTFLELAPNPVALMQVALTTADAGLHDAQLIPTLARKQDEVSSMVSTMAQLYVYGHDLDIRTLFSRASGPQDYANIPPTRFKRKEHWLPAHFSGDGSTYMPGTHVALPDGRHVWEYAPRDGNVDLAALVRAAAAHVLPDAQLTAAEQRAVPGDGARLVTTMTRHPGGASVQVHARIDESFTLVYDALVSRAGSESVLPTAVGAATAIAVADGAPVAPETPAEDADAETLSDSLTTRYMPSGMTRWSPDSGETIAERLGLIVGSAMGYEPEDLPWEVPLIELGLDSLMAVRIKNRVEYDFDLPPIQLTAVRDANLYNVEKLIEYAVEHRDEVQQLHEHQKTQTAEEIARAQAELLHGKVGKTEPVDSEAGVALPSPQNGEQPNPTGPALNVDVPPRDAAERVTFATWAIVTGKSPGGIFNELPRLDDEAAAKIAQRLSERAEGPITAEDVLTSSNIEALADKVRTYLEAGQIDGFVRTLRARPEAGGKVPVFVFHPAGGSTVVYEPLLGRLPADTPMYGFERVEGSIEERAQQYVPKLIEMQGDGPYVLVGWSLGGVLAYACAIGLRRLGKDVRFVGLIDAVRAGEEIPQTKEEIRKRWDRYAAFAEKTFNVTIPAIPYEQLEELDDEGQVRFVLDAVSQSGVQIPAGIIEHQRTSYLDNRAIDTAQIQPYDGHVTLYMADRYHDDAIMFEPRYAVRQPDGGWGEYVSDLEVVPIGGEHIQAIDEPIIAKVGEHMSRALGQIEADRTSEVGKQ

Source: ChEMBL document CHEMBL3988442, “University of Dundee, Small-Polar-MMV Screening Library” (2021).

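Polyketide synthase Pks13, Mycobacterium tuberculosis (UniProt I6X8D2). Enzyme assay of the thioesterase domain of polyketide synthase 13; the read-out is not stated. Tested at 30 µM. Higher reads as stronger inhibition (inferred from which compounds were picked for retests). About 67,000 compounds were tested under these conditions; 0.46% (about 300) showed 50% or more at least once.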

Results are given as percent effect. The controls that fix the scale are not given in the record; negative values are as filed. This is an unselected part of the compounds tested.

Result for O=S(=O)(c1cc2ccccc2o1)N1CCCC1 was -4.008%.
Result for CC(=O)Nc1ccc2c(c1)nc1n2[C@@H](CNCc2ccccc2)COC1 was -34.69%.
Result for CCCc1nccn1-c1cccc(C(C)O)c1 (stereo not given) was -43.32%.
Result for Cc1nc2ccccc2nc1CN1CCOC(Cn2cccn2)C1 (stereo not given) was -4.174%.
Result for CCN(CCc1nc2cc(C)ccc2[nH]1)C(=O)[C@@H](N)CCSC was -33.18%.
Result for CNC(C(=O)OC)c1cc(F)ccc1F (stereo not given) was -6.619%.
Result for CCn1nc(C)c(CN(CCOC)C(=O)c2ccc(=O)[nH]n2)c1C was 2.968%.
Result for Cc1cccnc1CNc1cc(N2CCCC2CO)ncn1 (stereo not given) was -8.776%.
Result for CS(=O)(=O)CCCN(CCCO)C1CCc2ccccc21 (stereo not given) was -8.646%.
Result for CCc1cc(CN2CCC(CCC(=O)Nc3ccccc3Cl)CC2)on1 was -22.44%.
Result for NC(=O)COc1ccc(CNCc2ccc(F)c(F)c2)cc1 was -10.3%.
Result for CNS(=O)(=O)c1ccc(C(=O)NC2CCc3nc(C)cn3C2)o1 (stereo not given) was -15.94%.
Result for Cc1nnc(C2CCN(c3ccccc3)CC2)o1 was 15.11%.
Result for CC(C)c1noc(C(C)N2CCC(c3nc4ccccc4o3)CC2)n1 (stereo not given) was 5.752%.
Result for COCCN(CC1CCCO1)C(=O)CCNC(=O)c1ccccc1F (stereo not given) was -31.65%.
Result for Cc1ccccc1N1CC2(CCN(S(=O)(=O)c3ccccc3)C2)CC1=O (stereo not given) was -26.88%.
Result for CNC1CCCN(Cc2noc(C3CC3)n2)C1 (stereo not given) was -5.291%.
Result for CC(=O)NC1CCCN(C(=O)c2ccc(Br)cc2O)C1 (stereo not given) was -1.75%.
Result for CC(C1CCN(Cc2c(Cl)cncc2Cl)CC1)N1CCN(C)CC1 (stereo not given) was 11.77%.
Result for Cc1nccc(C2CN(C(=O)c3cncnc3)C2)n1 was -12.19%.
Result for COc1ccccc1C(C)(C)NC(=O)NCCC(=O)NC1CCCC1 was 8.301%.
Result for COCCOCC(=O)Nc1ccnn1-c1ccc(Cl)cc1 was -39.81%.
Result for c1cncc(-c2noc(CN3CCOC(Cn4cccn4)C3)n2)c1 (stereo not given) was -9.685%.
Result for NC(=O)C1(CNC(=O)CCc2ccc(Cl)s2)CCOCC1 was -16.76%.
Result for c1cc(CCN2CCCC2CN2CCCCC2)ccn1 (stereo not given) was -11.09%.
Result for CCOC(=O)Cc1n[nH]c(-c2cncc(Br)c2)n1 was -0.929%.
Result for COc1ccc(Cl)cc1CS(=O)(=O)CC(=O)N(C)Cc1ccccc1F was -7.632%.
Result for COc1ccc(Cl)cc1-n1nc(C2CCCC2)nc1Cn1cnnn1 was -23.32%.
Result for COCCN1C(=O)[C@H]2CC[C@@H]1CN(C(=O)COc1ccc(F)c(Cl)c1)C2 was -29.25%.
Result for CCN(Cc1cc(F)c(OC)c(Cl)c1)Cc1noc(CC(C)C)n1 was -3.354%.
Result for Cc1ncncc1C(=O)Nc1cnn(CC(=O)NC2CCCC2)c1 was -1.563%.
Result for Cc1ccc(NC(=O)C2=CN=S=N2)cc1 was -7.785%.
Result for CN(CCCNC(=O)c1ccccc1F)CC(F)(F)F was -20.99%.
Result for CC(=O)NC1CC(C)(C)Cc2c1cnn2-c1cccc(F)c1 (stereo not given) was -29.31%.
Result for Cc1nnc(-c2cccc(N3CCC(NC4CCSC4)CC3)c2)s1 (stereo not given) was -11.61%.
Result for Cc1c(C(=O)NC(CN2CCCC2=O)c2ccccc2)cnn1C (stereo not given) was -4.554%.
Result for COCCNc1nc(NCCc2ccccc2)nc2nccnc12 was 1.547%.
Result for COc1ccc2c(c1)CCCN(CC(=O)NCC1CCCO1)C2 (stereo not given) was 2.386%.
Result for CO[C@@H]1CCN(S(=O)(=O)N(C)C)[C@@H]2CN(Cc3ccncc3)C[C@@H]21 was -11.02%.
Result for CCCn1nc(C(=O)NC2(c3ccc(Cl)cc3)CCCC2)ccc1=O was -17.33%.
Result for COc1ccc(-n2c(CCC(=O)O)nc3ccccc32)cc1CO was -34.24%.
Result for Cc1ccc2nc(C)c(C)c(C(=O)NCCCn3cnnc3)c2c1 was -31.89%.
Result for CN(Cc1cccc(F)c1)C1CCN(CCc2ccccn2)CC1 was -12.95%.
Result for Cc1csc(CCNC(=O)NC(C)Cn2cccn2)n1 (stereo not given) was -37.16%.
Result for CC(C)N(C)C(=O)c1coc(CN2CCN(c3ccccc3F)CC2)n1 was -10.94%.
Result for CCC(=O)N1CCC2(C=C(C(=O)N(C)C)c3ccccc32)CC1 was -53.12%.
Result for COC(=O)C1(NCC(=O)Nc2cc(C)ccc2OC)CCCCC1 was -9.311%.
Result for CN(C(=O)C1CCCCC1)[C@@H]1CCC[C@@H](N2CCOCC2)[C@@H]1O was -20.21%.
Result for O=C(c1cccs1)N1CC(Oc2ccccc2Cl)C1 was -43.36%.
Result for COc1cc(CNC(=O)c2c(C)noc2C(C)C)ccn1 was -14.25%.
Result for Cc1noc(C)c1-c1cncc(C2CCCN2Cc2ncccc2F)n1 (stereo not given) was 5.378%.
Result for COc1cc2c(cc1-c1nc3c(cnn3C(C)C)[nH]1)OCO2 was -12.47%.
Result for c1cc(-c2noc([C@@H]3CCCN3CC3CC3)n2)cc(N2CCCC2)n1 was 36.42%.
Result for OC(CNCCn1cccn1)COc1ccc(Br)cc1 (stereo not given) was -15.07%.
Result for CCNc1ncc(C(=O)NCc2csc(-c3ncccn3)n2)cn1 was 11.9%.

Repeated from the top, 6 entries:

structure,Percent Effect
O=S(=O)(c1cc2ccccc2o1)N1CCCC1,-4.008
CC(=O)Nc1ccc2c(c1)nc1n2[C@@H](CNCc2ccccc2)COC1,-34.69
CCCc1nccn1-c1cccc(C(C)O)c1 (stereo not given),-43.32
Cc1nc2ccccc2nc1CN1CCOC(Cn2cccn2)C1 (stereo not given),-4.174
CCN(CCc1nc2cc(C)ccc2[nH]1)C(=O)[C@@H](N)CCSC,-33.18
CNC(C(=O)OC)c1cc(F)ccc1F (stereo not given),-6.619